Laboratory results from the supplement of paper PMC3334620.
In all, about 33,000 sequences were measured (“E-score (-0.5 to 0.5)”: median about -0.015, highest 2% from about 0.3 on). The list shows a part of the results.

target: T1, Abf1 (UniProt P14164); assay: PBM E-score (8-mer binding enrichment) (E-score (-0.5 to 0.5)); higher = stronger / more preferred TF binding; settings: protein concentration: 200 nM; construct: GST-full length
T1 sequence: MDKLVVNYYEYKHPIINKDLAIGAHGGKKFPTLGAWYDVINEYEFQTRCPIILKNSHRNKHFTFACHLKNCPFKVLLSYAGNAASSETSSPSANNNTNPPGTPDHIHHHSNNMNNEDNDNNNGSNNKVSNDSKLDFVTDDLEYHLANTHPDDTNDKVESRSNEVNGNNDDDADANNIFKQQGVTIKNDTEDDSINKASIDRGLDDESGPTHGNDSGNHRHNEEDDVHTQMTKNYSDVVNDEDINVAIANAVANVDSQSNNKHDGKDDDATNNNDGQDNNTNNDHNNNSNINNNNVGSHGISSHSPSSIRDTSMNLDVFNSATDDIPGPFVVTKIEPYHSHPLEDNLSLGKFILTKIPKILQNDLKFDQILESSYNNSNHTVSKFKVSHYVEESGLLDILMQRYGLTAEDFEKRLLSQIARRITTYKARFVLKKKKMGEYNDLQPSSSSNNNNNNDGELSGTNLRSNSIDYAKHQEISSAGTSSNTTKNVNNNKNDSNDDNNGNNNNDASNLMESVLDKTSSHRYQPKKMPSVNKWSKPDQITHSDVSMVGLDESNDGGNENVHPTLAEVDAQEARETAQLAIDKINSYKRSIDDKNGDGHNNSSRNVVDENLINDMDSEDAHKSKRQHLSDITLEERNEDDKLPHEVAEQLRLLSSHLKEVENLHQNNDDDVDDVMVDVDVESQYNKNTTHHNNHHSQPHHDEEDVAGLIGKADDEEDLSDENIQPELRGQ
Outline: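 For each ungapped eight-base word taken together with its reverse complement, the Universal PBM Analysis Suite assigned an E-score. Binding data came from GST-tagged yeast transcription factors, applied at about 100-200 nM, on universal all-10-mer Agilent arrays made double-stranded by primer extension. Fluorescent anti-GST marked bound protein, and scans were normalised with masliner.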

Row | Sequence | PBM E-score
1 | ACCGCGTG | 0.0233
2 | CTAGGCTC | -0.173
3 | ATATCAAC | 0.201
4 | GCTCACAA | 0.132
5 | ATATATAT | -0.0977
6 | ACCGGGTA | 0.0301
7 | AAATATCT | 0.0361
8 | CAGCATGA | -0.0955
9 | AAGACACA | -0.231
10 | GTCCCGAA | 0.00205
11 | ACCGTCTA | 0.0278
12 | AACACGCT | -0.047
13 | AATCATAC | 0.106
14 | GAGCACGC | 0.0137
15 | AAAGTCGA | -0.0513
16 | ACTCTAGC | -0.187
17 | CTTTTCTC | 0.152
18 | CTGTGTCC | -0.0659
19 | TAGCCCTA | -0.149
20 | ACTCGGTA | -0.0607
21 | AAGATCAG | -0.115
22 | CGCGCAGC | -0.173
23 | CTCTGATA | 0.171
24 | CCTATTCG | 0.0568
25 | TAATGAGA | 0.0631

Rewritten as comma-separated lines: entries from further up.
Row,Sequence,PBM E-score
6,ACCGGGTA,0.0301
14,GAGCACGC,0.0137
16,ACTCTAGC,-0.187
19,TAGCCCTA,-0.149
22,CGCGCAGC,-0.173

The list continues:

Row | Sequence | PBM E-score
26 | CCTGGTCC | -0.205
27 | CAAGTCTA | 0.0238
28 | TAGGGCGA | -0.0932
29 | CATACTTA | 0.113
30 | GGCTCTCA | -0.224
31 | CCCTCCGA | -0.0812
32 | AATCTGAC | 0.177
33 | AGTGATTA | 0.351
34 | CGACTATC | 0.166
35 | ATAGAAAT | 0.113
36 | ATCCCCAA | -0.0599
37 | CTAAGGAG | -0.109
38 | CCCGTATC | 0.107
39 | TAGTCACA | 0.128
40 | GCCGGAAA | -0.0201
41 | GGTTGCAC | -0.0909
42 | GAGCCTCA | -0.133
43 | AAAGGAAT | -0.00419
44 | AGCTGGCC | -0.114
45 | GATAGGGC | -0.134
46 | GCGATTTA | 0.114
47 | GAATCTAA | 0.0358
48 | CATCCTAC | 0.195
49 | AGCCACTG | -0.158
50 | CCCCCGAA | -0.18

Row | Sequence | PBM E-score
51 | AACACAGA | 0.0142
52 | CTGGTTGC | -0.0319
53 | GAATTAAC | 0.0822
54 | CAGTAGAC | 0.134
55 | GGTGGTTA | -0.252
56 | CACGGCGC | 0.139
57 | ACGGCTAT | 0.128
58 | CCGTTGTC | 0.174
59 | AAAATTGG | 0.0521
60 | GGGCTCGA | -0.187
61 | CTCTGTTC | -0.132
62 | CTAGAAAA | -0.00272
63 | ATGAGCTC | -0.15
64 | CAATACTC | 0.12
65 | CGATGGGC | -0.143
66 | CACGCGGC | -0.0475
67 | AAGGACAC | 0.0575
68 | ACTGTCGC | 0.128
69 | GGTAAAAA | 0.0336
70 | GCTAAAGA | -0.0209
71 | TATCCAAA | 0.189
72 | TCTGATAA | 0.134
73 | GGTGGAAA | -0.00266
74 | GTGCCTCA | -0.279
75 | GTCCTTTA | -0.102

Row | Sequence | PBM E-score
76 | ACCTCGTC | 0.103
77 | GGCGGGAC | -0.164
78 | CGCGCCAG | -0.204
79 | CACAAAGA | 0.0323
80 | GGCTTCGA | -0.107
81 | GATTCCAC | 0.0172
82 | AGGACCAC | -0.148
83 | ACGTAGAT | 0.15
84 | GTCGCAAC | 0.00745
85 | CTAACATA | -0.0195
86 | AAAGATTC | 0.134
87 | AAGGTGAC | 0.259
88 | GGATAATA | 0.173
89 | CTCTTGTA | -0.0473
90 | CCTCTCTA | -0.39
91 | GGCACGGA | -0.111
92 | GACGCTTA | -0.01
93 | CTCCATAC | 0.151
94 | ACACTAGG | -0.0202
95 | GGGTACAC | -0.0053
96 | AAAACCAC | -0.097
97 | GCGCGTGA | 0.21
98 | CATACAGC | -0.258
99 | CCCAAGCA | -0.226
100 | GAAGCTCC | -0.124

Row | Sequence | PBM E-score
101 | GGGAGCAA | -0.305
102 | GCCACGGC | -0.0347
103 | AGTCGTAA | 0.0165
104 | GCTCCAGC | -0.0487
105 | CGTGGCCC | -0.129
106 | AATCTCGA | -0.00869
107 | CGGATAAG | 0.0322
108 | ACCATATA | 0.247
109 | GGGGTGCA | -0.216
110 | CGACTGCG | -0.0701
111 | ACCCTAGT | -0.106
112 | CGAAACAA | 0.203
113 | ACCAAATG | 0.0408
114 | GTCATGAC | 0.221
115 | GCAATCCA | 0.0495
116 | GAAACTCA | -0.161
117 | AAGAGCGA | -0.179
118 | AATTTGAT | -0.0785
119 | CGTCGCTC | 0.233
120 | ATTTCGAC | -0.0821
121 | GGGCCCAC | -0.16
122 | ACCGCTCA | 0.0985
123 | GCAACAGC | -0.0613
124 | CGGGAGTA | 0.127
125 | ACTCGGAA | -0.0125

Fetched one by one from above, 2 records:
Row | Sequence | PBM E-score
104 | GCTCCAGC | -0.0487
48 | CATCCTAC | 0.195

Remaining list, next part

Row | Sequence | PBM E-score
126 | CCCCAATC | -0.133
127 | TATCGGCA | -0.127
128 | ACAACCGC | 0.0488
129 | TTCAGCAA | -0.00597
130 | CCCCACAC | -0.1
131 | CCCCTTTC | -0.0997
132 | ACATAGAT | 0.0539
133 | CGCGGCGC | -0.00706
134 | ATCGCTGA | 0.111
135 | CAAGAGAC | 0.0097
136 | GGAGAAAC | -0.113
137 | TCACCGGA | -0.0856
138 | ATGTGATG | 0.0498
139 | ATCAAAGC | -0.0957
140 | TCGGCCGA | 0.0974
141 | TAGCTACA | 0.139
142 | TAGCGAAA | -0.00307
143 | ACAGCTGT | 0.048
144 | CCTCCTCA | -0.302
145 | AACTGAGT | -0.187
146 | AGCCCAGG | -0.313
147 | TCCAGACA | -0.27
148 | GACTTGTA | -9e-05
149 | GTAACTCA | 0.121
150 | GAGACGCC | -0.0858

Row | Sequence | PBM E-score
151 | AATGGTAT | 0.0198
152 | AGACACGC | -0.0699
153 | AAGGAGGG | -0.262
154 | CTACCTCC | -0.108
155 | ACACTGCG | -0.143
156 | CAAACGGA | 0.0341
157 | AAAAAGGC | 0.151
158 | ACTGCCCT | 0.0979
159 | ACCCATAC | -0.00781
160 | AAAGTGCA | 0.0419
161 | TCTTATCA | 0.316
162 | CGATTTAC | 0.136
163 | AATGTTTA | -0.146
164 | ATTACCCA | 0.0876
165 | ACTAGGTC | 0.17
166 | GATCGCCC | 0.0433
167 | ACAAGCTA | -0.121
168 | CGACGGCC | 0.077
169 | ACGAGCCG | 0.231
170 | AGGAATTC | -0.164
171 | AAAACGCT | -0.0791
172 | ACCGTCCA | 0.116
